The list shows a part of the results.

Sequences of proteins named here, by UniProt entry; tags and fusion partners are left off. A change or cut given only in a name is not applied to a line headed by its entry.
UniProt Q8IYL3: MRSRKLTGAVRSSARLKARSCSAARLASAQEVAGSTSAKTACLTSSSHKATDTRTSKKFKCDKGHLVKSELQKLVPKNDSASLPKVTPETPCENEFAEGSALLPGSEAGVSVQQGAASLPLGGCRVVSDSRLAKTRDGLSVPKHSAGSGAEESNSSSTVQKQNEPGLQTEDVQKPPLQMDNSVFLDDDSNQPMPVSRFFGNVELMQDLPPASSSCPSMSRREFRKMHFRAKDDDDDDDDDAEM
UniProt Q9HAS0: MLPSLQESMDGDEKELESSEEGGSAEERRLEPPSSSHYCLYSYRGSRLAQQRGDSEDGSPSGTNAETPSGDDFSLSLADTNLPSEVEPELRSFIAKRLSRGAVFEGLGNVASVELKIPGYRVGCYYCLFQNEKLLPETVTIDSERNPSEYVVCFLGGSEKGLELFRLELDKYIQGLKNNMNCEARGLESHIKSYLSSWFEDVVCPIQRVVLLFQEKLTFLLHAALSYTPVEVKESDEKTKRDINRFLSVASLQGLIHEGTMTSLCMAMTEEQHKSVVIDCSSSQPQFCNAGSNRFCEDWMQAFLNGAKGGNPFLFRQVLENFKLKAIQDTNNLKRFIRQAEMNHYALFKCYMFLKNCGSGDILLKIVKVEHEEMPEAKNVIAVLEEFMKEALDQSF
UniProt Q0VDD7: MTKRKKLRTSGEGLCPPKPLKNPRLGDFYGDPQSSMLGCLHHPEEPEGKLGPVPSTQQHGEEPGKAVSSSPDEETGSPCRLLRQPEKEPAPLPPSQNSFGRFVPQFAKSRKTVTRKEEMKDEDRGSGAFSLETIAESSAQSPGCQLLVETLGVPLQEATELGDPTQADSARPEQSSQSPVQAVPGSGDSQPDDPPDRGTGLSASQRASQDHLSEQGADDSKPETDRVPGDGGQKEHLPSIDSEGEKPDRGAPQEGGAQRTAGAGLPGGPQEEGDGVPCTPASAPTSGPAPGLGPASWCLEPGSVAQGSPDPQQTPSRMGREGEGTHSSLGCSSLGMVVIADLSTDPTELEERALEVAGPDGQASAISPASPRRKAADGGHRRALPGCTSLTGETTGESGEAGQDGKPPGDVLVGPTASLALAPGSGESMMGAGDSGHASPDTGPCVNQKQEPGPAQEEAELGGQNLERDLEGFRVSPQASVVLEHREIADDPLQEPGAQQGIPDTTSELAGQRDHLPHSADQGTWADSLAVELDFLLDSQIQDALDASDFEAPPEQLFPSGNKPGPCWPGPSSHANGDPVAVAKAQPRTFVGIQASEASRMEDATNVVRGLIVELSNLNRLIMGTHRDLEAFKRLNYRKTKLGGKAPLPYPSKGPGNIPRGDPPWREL
UniProt P05937: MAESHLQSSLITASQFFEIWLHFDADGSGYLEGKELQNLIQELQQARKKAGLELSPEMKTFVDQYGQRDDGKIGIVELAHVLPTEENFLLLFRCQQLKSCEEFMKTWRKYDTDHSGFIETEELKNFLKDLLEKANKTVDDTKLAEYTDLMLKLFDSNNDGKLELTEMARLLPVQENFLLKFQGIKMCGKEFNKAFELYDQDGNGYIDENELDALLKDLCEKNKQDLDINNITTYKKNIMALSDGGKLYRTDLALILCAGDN
UniProt O43852: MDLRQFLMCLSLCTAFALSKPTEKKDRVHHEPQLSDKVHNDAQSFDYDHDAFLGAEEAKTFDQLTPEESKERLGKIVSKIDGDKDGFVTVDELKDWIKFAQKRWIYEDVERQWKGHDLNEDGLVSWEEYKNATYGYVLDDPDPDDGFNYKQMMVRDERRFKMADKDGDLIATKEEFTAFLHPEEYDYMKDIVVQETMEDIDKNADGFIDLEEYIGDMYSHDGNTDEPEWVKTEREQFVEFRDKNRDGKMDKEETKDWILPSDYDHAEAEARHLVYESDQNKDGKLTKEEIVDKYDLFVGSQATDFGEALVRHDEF
UniProt Q49AR2: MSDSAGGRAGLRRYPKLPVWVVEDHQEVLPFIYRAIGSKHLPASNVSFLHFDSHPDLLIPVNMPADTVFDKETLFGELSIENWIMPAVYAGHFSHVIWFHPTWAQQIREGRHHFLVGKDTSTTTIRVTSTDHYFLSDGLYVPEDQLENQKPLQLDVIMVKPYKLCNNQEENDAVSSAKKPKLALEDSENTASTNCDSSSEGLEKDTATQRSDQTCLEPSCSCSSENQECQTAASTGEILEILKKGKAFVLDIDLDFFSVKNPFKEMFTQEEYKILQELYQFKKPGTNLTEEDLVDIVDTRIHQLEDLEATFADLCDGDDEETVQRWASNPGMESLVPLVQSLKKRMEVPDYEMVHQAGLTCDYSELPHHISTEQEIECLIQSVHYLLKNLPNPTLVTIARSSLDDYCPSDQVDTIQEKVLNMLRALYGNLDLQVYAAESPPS
UniProt O43684, whole entry, looked up: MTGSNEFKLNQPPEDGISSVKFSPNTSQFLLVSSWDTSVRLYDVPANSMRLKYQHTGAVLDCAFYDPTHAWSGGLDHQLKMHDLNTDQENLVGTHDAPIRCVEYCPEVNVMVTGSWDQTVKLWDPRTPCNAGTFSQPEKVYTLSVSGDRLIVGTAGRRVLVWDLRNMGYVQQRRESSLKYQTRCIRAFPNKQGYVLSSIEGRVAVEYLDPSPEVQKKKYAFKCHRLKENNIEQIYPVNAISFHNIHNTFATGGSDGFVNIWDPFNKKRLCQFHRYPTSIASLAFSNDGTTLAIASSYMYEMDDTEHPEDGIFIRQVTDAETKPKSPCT
UniProt P40121: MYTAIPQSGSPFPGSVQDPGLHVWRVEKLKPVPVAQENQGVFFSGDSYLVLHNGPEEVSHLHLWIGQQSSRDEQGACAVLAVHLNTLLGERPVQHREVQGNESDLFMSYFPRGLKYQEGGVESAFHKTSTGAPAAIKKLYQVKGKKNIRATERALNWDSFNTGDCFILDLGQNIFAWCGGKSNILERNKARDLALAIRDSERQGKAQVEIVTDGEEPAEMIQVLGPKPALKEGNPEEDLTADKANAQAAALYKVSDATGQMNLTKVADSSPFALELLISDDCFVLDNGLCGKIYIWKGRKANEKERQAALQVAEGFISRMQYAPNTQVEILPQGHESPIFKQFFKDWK
UniProt Q9NX04: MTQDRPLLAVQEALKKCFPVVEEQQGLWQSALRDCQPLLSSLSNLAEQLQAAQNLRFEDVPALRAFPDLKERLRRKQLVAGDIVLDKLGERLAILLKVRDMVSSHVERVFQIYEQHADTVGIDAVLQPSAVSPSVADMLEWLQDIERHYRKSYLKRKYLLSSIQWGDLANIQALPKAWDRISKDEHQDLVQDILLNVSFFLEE
UniProt Q9Y6E2: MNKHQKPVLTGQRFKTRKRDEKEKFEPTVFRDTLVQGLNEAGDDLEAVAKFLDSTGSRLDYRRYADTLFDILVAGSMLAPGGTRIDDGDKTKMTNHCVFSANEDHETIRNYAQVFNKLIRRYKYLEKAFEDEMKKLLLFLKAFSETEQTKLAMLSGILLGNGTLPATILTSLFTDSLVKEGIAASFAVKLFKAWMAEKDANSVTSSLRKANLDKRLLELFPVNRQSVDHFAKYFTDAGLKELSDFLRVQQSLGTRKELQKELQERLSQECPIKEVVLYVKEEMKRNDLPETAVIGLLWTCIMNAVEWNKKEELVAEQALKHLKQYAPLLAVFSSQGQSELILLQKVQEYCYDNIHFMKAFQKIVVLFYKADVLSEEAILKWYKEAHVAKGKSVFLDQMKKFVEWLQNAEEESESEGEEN
UniProt P35219: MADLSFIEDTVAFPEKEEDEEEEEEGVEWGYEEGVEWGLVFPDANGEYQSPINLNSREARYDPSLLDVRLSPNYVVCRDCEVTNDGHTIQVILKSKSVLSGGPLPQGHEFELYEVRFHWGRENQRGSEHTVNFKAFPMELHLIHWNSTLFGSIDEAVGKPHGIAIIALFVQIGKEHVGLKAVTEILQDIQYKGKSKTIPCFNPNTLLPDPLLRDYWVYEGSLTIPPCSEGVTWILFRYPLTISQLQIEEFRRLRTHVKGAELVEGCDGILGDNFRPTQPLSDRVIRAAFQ
UniProt Q9NS00: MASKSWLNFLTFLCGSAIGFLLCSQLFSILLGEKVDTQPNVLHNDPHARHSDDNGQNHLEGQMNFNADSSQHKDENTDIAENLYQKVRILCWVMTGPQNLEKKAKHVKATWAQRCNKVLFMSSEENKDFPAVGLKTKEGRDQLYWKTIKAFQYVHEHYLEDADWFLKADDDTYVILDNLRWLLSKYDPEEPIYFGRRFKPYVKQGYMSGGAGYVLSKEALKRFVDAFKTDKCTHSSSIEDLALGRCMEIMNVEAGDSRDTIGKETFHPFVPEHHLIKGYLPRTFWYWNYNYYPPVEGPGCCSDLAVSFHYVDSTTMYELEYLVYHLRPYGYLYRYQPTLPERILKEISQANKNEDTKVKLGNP
UniProt Q9H425: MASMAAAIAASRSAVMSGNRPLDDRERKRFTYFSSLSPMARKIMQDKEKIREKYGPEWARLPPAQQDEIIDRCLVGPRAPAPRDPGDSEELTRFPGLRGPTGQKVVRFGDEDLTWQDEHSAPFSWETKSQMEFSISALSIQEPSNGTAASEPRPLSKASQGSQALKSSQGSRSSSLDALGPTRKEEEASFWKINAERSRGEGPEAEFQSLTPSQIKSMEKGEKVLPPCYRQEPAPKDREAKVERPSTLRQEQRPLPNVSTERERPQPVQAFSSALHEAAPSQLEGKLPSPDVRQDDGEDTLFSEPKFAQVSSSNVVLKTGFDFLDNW
UniProt O43683: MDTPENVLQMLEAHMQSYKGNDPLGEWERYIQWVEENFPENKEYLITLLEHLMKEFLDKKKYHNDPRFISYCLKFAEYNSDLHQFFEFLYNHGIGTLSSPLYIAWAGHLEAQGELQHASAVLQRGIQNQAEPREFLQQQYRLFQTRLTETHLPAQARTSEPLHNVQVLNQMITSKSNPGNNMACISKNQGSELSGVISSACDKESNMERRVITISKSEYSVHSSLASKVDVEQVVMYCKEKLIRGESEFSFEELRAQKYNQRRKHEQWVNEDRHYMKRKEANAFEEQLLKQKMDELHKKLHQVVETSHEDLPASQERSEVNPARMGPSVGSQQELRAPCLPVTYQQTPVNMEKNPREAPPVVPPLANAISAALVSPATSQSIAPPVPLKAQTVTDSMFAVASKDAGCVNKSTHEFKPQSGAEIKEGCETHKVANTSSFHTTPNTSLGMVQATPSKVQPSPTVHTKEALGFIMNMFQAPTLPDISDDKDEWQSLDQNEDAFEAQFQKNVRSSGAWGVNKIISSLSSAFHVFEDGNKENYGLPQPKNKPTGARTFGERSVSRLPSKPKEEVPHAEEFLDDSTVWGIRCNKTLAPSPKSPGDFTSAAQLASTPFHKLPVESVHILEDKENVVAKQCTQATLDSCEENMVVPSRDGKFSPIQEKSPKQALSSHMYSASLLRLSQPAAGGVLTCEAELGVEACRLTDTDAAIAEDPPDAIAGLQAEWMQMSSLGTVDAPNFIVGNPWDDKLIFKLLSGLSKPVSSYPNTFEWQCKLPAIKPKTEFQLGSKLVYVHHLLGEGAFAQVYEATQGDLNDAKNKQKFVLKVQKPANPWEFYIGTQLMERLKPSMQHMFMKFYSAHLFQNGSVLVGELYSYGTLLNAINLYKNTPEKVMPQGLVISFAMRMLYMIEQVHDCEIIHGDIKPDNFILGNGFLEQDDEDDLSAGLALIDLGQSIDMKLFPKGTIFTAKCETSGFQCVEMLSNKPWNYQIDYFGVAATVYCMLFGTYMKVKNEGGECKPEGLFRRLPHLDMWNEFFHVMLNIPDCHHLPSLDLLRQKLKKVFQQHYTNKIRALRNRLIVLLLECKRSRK
UniProt Q7L1Q6: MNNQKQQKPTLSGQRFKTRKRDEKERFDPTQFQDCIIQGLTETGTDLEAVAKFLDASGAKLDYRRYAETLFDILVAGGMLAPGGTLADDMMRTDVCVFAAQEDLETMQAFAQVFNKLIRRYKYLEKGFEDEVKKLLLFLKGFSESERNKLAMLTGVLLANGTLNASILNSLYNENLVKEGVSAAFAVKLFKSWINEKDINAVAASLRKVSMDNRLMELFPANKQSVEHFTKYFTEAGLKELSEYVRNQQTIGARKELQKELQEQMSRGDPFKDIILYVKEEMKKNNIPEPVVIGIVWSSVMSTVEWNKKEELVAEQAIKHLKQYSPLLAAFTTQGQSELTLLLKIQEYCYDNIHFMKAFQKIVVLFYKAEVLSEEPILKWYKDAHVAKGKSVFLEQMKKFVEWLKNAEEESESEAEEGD
UniProt Q8IXQ3: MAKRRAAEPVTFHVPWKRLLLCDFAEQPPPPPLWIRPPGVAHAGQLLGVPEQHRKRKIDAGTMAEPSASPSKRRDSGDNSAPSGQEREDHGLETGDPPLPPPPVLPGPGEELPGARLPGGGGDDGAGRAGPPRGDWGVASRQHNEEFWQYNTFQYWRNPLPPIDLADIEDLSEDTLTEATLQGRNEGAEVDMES
UniProt O43709: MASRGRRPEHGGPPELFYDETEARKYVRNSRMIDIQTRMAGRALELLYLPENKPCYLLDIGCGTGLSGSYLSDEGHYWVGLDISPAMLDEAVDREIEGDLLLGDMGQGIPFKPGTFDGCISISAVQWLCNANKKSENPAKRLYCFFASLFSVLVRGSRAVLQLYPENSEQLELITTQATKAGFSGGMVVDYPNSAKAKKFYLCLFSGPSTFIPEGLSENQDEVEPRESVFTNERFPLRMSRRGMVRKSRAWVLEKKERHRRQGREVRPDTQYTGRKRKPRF

Compound in the test: c1ccc([C@@H]2C[C@H]2NC2CCNCC2)cc1
Description: log2 fold change, soluble protein after heating vs DMSO (PISA); higher = thermal stabilisation; K562 cells, 10 uM, 30 min; active = over 0.2 and 3.5 SD of the protein, either way, in both replicates (recomputed). The method in brief: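 K562 cells at 2×10^6 cells/mL were given 10 μM compound for 30 min. Aliquots then went through 3 min of heating across 48°C-58°C, were pooled, and were extracted in PBS with 0.5% NP-40 at 4°C, and the supernatant after 21,000xg for 90 min was quantified by TMTpro 16plex LC-MS/MS with channel sums equalised. Thermal stability relative to control samples, from duplicates, is given as log2 fold change.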
For the target C2orf69 (UniProt Q8N8R5), the log2 fold change was inactive: 0.034.

As to CACYBP (UniProt Q9HB71), the log2 fold change was inactive: -0.015.

With BTD isoform 3 (UniProt P43251), the log2 fold change was inactive: 0.095.

As for C1orf174 (UniProt Q8IYL3), the log2 fold change is inactive: -0.001.

In the case of C17orf75 (UniProt Q9HAS0), the log2 fold change is inactive: -0.008.

For the target C19orf57 (UniProt Q0VDD7), the log2 fold change is inactive: 0.116.

For CALB1 (UniProt P05937), the log2 fold change was inactive: 0.026.

In the case of C2CD5 isoform 4 (UniProt Q86YS7), the log2 fold change was inactive: 0.017.

As for BUD31 (UniProt P41223), the log2 fold change is inactive: -0.019.

As to BTF3L4 (UniProt Q96K17), the log2 fold change was inactive: 0.015.

For CALU isoform 3 (UniProt O43852), the log2 fold change is inactive: 0.037.

For C5orf22 (UniProt Q49AR2), the log2 fold change was inactive: 0.007.

Turning to CAPN2 (UniProt P17655), the log2 fold change was inactive: 0.006.

BUB3 (UniProt O43684): the log2 fold change was inactive: 0.008.

Consider CAPG (UniProt P40121), for which the log2 fold change was inactive: 0.008.

For C1orf109 (UniProt Q9NX04), the log2 fold change is inactive: 0.076.

In the case of C18orf32 (UniProt Q8TCD1), the log2 fold change was inactive: 0.

In the case of C17orf80 (UniProt Q9BSJ5), the log2 fold change is inactive: -0.01.

Regarding BZW2 (UniProt Q9Y6E2), the log2 fold change is inactive: -0.014.

Turning to CAMK2G isoform 6 (UniProt Q13555), the log2 fold change is inactive: -0.021.

Take CA8 (UniProt P35219): the log2 fold change is inactive: -0.045.

Regarding C1GALT1 (UniProt Q9NS00), the log2 fold change was inactive: -0.022.

With C1orf167 isoform 2 (UniProt Q5SNV9), the log2 fold change was inactive: 0.057.

CA1 (UniProt P00915): the log2 fold change is inactive: 0.018.

As to C1orf198 (UniProt Q9H425), the log2 fold change was inactive: 0.005.

Consider C16orf58 (UniProt Q96GQ5), for which the log2 fold change is inactive: 0.013.

As for C5orf51 (UniProt A6NDU8), the log2 fold change was inactive: 0.006.

As to CAMSAP1 isoform 3 (UniProt Q5T5Y3), the log2 fold change was inactive: 0.02.

As for BST2 (UniProt Q10589), the log2 fold change is inactive: 0.055.

On to CAND1 (UniProt Q86VP6), for which the log2 fold change is inactive: 0.016.

For the target BUB1 (UniProt O43683), the log2 fold change is inactive: 0.018.

Take BZW1 isoform 3 (UniProt Q7L1Q6): the log2 fold change is inactive: -0.017.

Consider C9orf40 (UniProt Q8IXQ3), for which the log2 fold change is inactive: 0.072.

Regarding C11orf54 (UniProt Q9H0W9), the log2 fold change was inactive: -0.033.

Take BUD23 isoform 3 (UniProt O43709): the log2 fold change is inactive: -0.029.

Regarding C1orf52 (UniProt Q8N6N3), the log2 fold change was inactive: 0.032.
